Reference: PubChem BioAssay AID504786 (Drosophila RNAi Screening Center, 2011)
Aim: 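Knock-downs reducing HIF reporter induction by the iron chelator DFO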 (primary screen). Cell system: Drosophila S2 cells with a stable HIF luciferase reporter. Reagent: long dsRNA against Drosophila genes, about 0.2 µg dsRNA per well of a 384-well plate. Duration: three days of knock-down, then 20 h of DFO before reading. Treatment: desferrioxamine (DFO) at 100 µM, an iron chelator that mimics hypoxia, for 20 h. Detection: 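Firefly luciferase driven by the mouse ldh-a hypoxia-response element, measured after 20 h of 100 µM DFO; z-scores per plate, higher means more signal lost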. Reading the numbers: z-score: higher = stronger loss of HIF reporter signal.
The deposit covers about 21,000 reagents; shown is a random part of those with a known target gene and a result. 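Primary screen; positive scores mean lost reporter signal, so the sign may be inverted from the usual convention.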 Names joined by + are all predicted targets of the reagent.

no.	target gene	amplicon	z-score, replicate 1	z-score, replicate 2	z-score, replicate 3	z-score, replicate 4
1	CG13733	DRSC10061	-0.1	-0.3		
2	CG16779	DRSC15153	-0.2	0.1		
3	CG4476	DRSC10424	-0.1	-0.2		
4	PCNA	DRSC07653	-0.1	-0.2		
5	Ugt307A1	DRSC02138	-0.1	-0.3		
6	CG31898	DRSC01019	-0.2	-0.1		
7	Hira	DRSC18672	-0.4	0.4		
8	Sms	DRSC10408	-0.1	0.2		
9	hdm	DRSC18013	-0.3	-0.2		
10	CG7329	DRSC03046	-0.1	-0.1		
11	CG31279	DRSC13158	-0.3	-0.3		
12	CanA-14F	DRSC20211	0.6	0.5		
13	CG3687	DRSC06850	-0.1	0.1		
14	CG1638	DRSC15132	-0.2	0.3		
15	Graf	DRSC20131	-0.3	-0.1		
16	CG33773	DRSC14032	-0.5	0		
17	CG4594	DRSC02762	-0.2	0.1		
18	CG7457	DRSC10849	-0.3	-0.6		
19	CG14269	DRSC17912	-0.3	0.9		
20	Mnn1	DRSC03368	-0.3	-0.8		
21	glob1	DRSC16959	-0.2	0.3		
22	CG18628	DRSC10328	-0.1	-0.1		
23	hid	DRSC11316	-0.2	0		
24	CG2003	DRSC15411	-0.3	0.3		
25	Ir48b	DRSC06320	-0.1	-0.4		
26	CG34234 + Dh44-R2	DRSC07278	-0.3	-0.3		
27	alpha-Est3	DRSC12615	-0.4	-0.1		
28	CG7483	DRSC16249	-0.3	-0.5		
29	Cht11	DRSC18270	-0.3	-0.9		
30	CG6108 (retired record)	DRSC02929	-0.4	-0.4		
31	Dp	DRSC07402	1.9	1.7		
32	lost	DRSC12002	-0.6	-0.2		
33	lost	DRSC12234	-0.3	-0.5	-0.1	-0.3
34	CG5151	DRSC10487	3.4	0.2		
35	CG42471	DRSC01210	0	0		
36	CG14903	DRSC15024	-0.1	0.1		
37	CG17292	DRSC02594	0	0		
38	Amnionless	DRSC00317	-0.3	-0.5		
39	CG3038	DRSC18618	-0.3	-0.1		
40	jhamt	DRSC01985	-0.1	0.1		
41	CG10357	DRSC08155	-0.2	-0.5		
42	CG1418	DRSC06447	-0.2	-0.5		
43	CAH6	DRSC15505	-0.2	-0.1		
44	CG15576	DRSC18064	-0.3	-0.3		

The list goes on (5 carried over from the part before).
no.	target gene	amplicon	z-score, replicate 1	z-score, replicate 2	z-score, replicate 3	z-score, replicate 4
40	jhamt	DRSC01985	-0.1	0.1		
41	CG10357	DRSC08155	-0.2	-0.5		
42	CG1418	DRSC06447	-0.2	-0.5		
43	CAH6	DRSC15505	-0.2	-0.1		
44	CG15576	DRSC18064	-0.3	-0.3		
45	CG13679	DRSC10037	-0.2	-0.2	-0.2	-0.1
46	CG14506	DRSC14858	-0.4	0.2		
47	CG14572	DRSC11733	-0.3	-0.4		
48	CG17778	DRSC18504	-0.1	0.1		
49	alpha-Est6	DRSC12618	-0.3	-0.4		
50	CG15635	DRSC00470	-0.3	-0.2	-0.6	-0.3
51	Rrp42	DRSC07161	0.2	1.3		
52	CG13197	DRSC06322	-0.4	-0.3		
53	CG8892	DRSC03121	-0.3	-0.4		
54	CG33282	DRSC00422	-0.2	-0.6		
55	Polr3H	DRSC10817	-0.1	-0.4		
56	CG43896	DRSC10754	0.1	-0.2		
57	CG32301	DRSC08613	-0.3	-0.6		
58	dnd	DRSC16064	0.1	-0.2		
59	TfIIS	DRSC03455	-0.4	-0.4		
60	CG32391	DRSC08865	-0.1	0.9		
61	mon2	DRSC03112	-0.5	-0.6		
62	CG7518	DRSC16253	-0.3	-0.1		
63	Hmgs	DRSC06866	-0.3	0.3		
64	CG17272	DRSC15211	0	0.5		
65	CG3732	DRSC04410	-0.3	-0.4		
66	CG30485	DRSC06376	-0.4	-0.3		
67	CG1674	DRSC17142	-0.4	-0.1		
68	kst	DRSC08719	-0.3	-0.6		
69	CG6443	DRSC02958	-0.4	0.5		
70	bsh	DRSC03498	-0.2	-0.3		
71	CG13653	DRSC14653	-0.2	-0.3		
72	LRP1	DRSC07238	-0.3	-0.4		
73	CG14247	DRSC14742	0.1	-0.2		
74	CG9641	DRSC00721	-0.3	0.9		
75	Pyroxd1	DRSC02098	-0.1	-0.4		
76	CG1902	DRSC06798	-0.4	-0.3		
77	AlaRS-m	DRSC09660	-0.1	-0.1		
78	Mdh1 (retired record)	DRSC02846	-0.2	-0.3		
79	olf413	DRSC11543	-0.1	1.9		
80	olf413	DRSC11679	-0.3	-0.4	-0.4	-0.3
81	olf413	DRSC11721	-0.3	-0.6		
82	olf413	DRSC11833	-0.3	-0.1		
83	CG13460	DRSC10007	0	-0.5		
84	CG18744	DRSC15381	-0.3	-0.7		
85	Pgant6	DRSC08552	2.7	1.8		
86	Ndae1	DRSC00975	0.3	1.2		
87	Ndae1	DRSC02770	-0.3	-0.2		
88	Klp3A	DRSC18676	-0.2	-0.5		
89	betaTub85D	DRSC16910	-0.1	0.9		
90	Ste:CG33238 + Ste:CG33241 + Ste:CG33236 + 11 more	DRSC19004	-0.4	0.2		
91	Ste:CG33238 + Ste:CG33241 + Ste:CG33236 + 11 more	DRSC21260	-0.4	-0.4		
92	CG32444	DRSC11677	-0.3	-0.1		
93	firl	DRSC02428	-0.3	-0.4		
94	CG18171	DRSC08524	-0.2	-0.3		
95	Reck	DRSC10504	-0.3	-0.3		
96	Reck	DRSC10505	-0.3	-0.5		
97	TyrRS-m	DRSC04286	0.3	0.1		
98	CG7601	DRSC14131	-0.4	0		
99	Rhp	DRSC20279	-0.3	-0.5		
100	Med	DRSC16737	-0.4	0.6		
101	disco-r	DRSC20173	-0.3	-0.3		
102	disco-r	DRSC20174	-0.3	0		
103	Psn	DRSC11743	-0.3	0.3		
104	CG3529	DRSC10369	-0.2	0.4		
105	CG7945 + yellow-k	DRSC10851	-0.1	-0.1		
106	Spn42Da	DRSC05025	-0.3	0.2		
